Values from PubChem BioAssay AID1259317 (Drosophila RNAi Screening Center, 2017).

- Aim: 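Genes whose knockdown changes fly cell survival under toxic manganese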 (primary screen)
- Cell system: Drosophila S2R+ cells
- Reagent: long dsRNA against Drosophila genes
- Duration: 5 days (4 days knockdown, then 1 day metal)
- Conditions: manganese chloride added to 15 mM final for 1 day
- Measurement: 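Cellular ATP measured by luciferase luminescence after 4 days knockdown then 1 day of 15 mM manganese chloride; z-score averaged over three plates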
- Reading the numbers: mean z-score, 3 replicates: higher = more ATP, more surviving cells under manganese
- Hit rule: 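a knockdown is active when its averaged z-score lies above 1.5 or below -1.5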
- Calls: active = hit: z-score beyond ±1.5 (ATP up or down); inactive = not a hit
Here is one part, drawn at random, of 418 reagents tested. 34 of them (8.1%) count as active. 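Hits are two-sided: raised or lowered ATP both count; higher z-score means more ATP and more surviving cells.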 A number with no mark means an inactive call. Not stated in the record: the amount of reagent.

{"gene knocked down":"CG3902","amplicon":"DRSC10387","mean z-score, 3 replicates":-1.48}
{"gene knocked down":"CG3902","amplicon":"DRSC24267","mean z-score, 3 replicates":-0.234}
{"gene knocked down":"Hexo1 (Hexosaminidase 1)","amplicon":"DRSC08663","mean z-score, 3 replicates":-0.198}
{"gene knocked down":"Ctns (Cystinosin)","amplicon":"DRSC15175","mean z-score, 3 replicates":"2.06 (active)"}
{"gene knocked down":"Ctns (Cystinosin)","amplicon":"DRSC33258","mean z-score, 3 replicates":"2.7 (active)"}
{"gene knocked down":"Ctns (Cystinosin)","amplicon":"DRSC39640","mean z-score, 3 replicates":0.722}
{"gene knocked down":"Wdr24 (WD repeat domain 24)","amplicon":"DRSC14151","mean z-score, 3 replicates":-1.46}
{"gene knocked down":"Wdr24 (WD repeat domain 24)","amplicon":"DRSC36452","mean z-score, 3 replicates":-0.614}
{"gene knocked down":"Pmvk (Phosphomevalonate kinase)","amplicon":"DRSC02032","mean z-score, 3 replicates":-0.146}
{"gene knocked down":"Pmvk (Phosphomevalonate kinase)","amplicon":"DRSC36851","mean z-score, 3 replicates":-0.922}
{"gene knocked down":"VhaM9.7-c (Vacuolar H[+] ATPase M9.7 subunit c)","amplicon":"DRSC08204","mean z-score, 3 replicates":-0.269}
{"gene knocked down":"VhaM9.7-c (Vacuolar H[+] ATPase M9.7 subunit c)","amplicon":"DRSC30083","mean z-score, 3 replicates":0.00972}
{"gene knocked down":"Idh (Isocitrate dehydrogenase)","amplicon":"DRSC10779","mean z-score, 3 replicates":-1.38}
{"gene knocked down":"Idh (Isocitrate dehydrogenase)","amplicon":"DRSC34441","mean z-score, 3 replicates":-0.438}
{"gene knocked down":"Idh (Isocitrate dehydrogenase)","amplicon":"DRSC34442","mean z-score, 3 replicates":-0.417}
{"gene knocked down":"Pex3 (Peroxin 3)","amplicon":"DRSC10731","mean z-score, 3 replicates":0.287}
{"gene knocked down":"Pex3 (Peroxin 3)","amplicon":"DRSC40003","mean z-score, 3 replicates":-0.00352}
{"gene knocked down":"TrpRS-m (Tryptophanyl-tRNA synthetase, mitochondrial)","amplicon":"DRSC10848","mean z-score, 3 replicates":-1.06}
{"gene knocked down":"TrpRS-m (Tryptophanyl-tRNA synthetase, mitochondrial)","amplicon":"DRSC40413","mean z-score, 3 replicates":-0.394}
{"gene knocked down":"Daao1 (D-amino acid oxidase 1)","amplicon":"DRSC06131","mean z-score, 3 replicates":0.468}
{"gene knocked down":"VhaPPA1-2 (Vacuolar H[+] ATPase PPA1 subunit 2)","amplicon":"DRSC16176","mean z-score, 3 replicates":0.584}
{"gene knocked down":"VhaPPA1-2 (Vacuolar H[+] ATPase PPA1 subunit 2)","amplicon":"DRSC25591","mean z-score, 3 replicates":-0.459}
{"gene knocked down":"Sod3 (Superoxide dismutase 3)","amplicon":"DRSC07324","mean z-score, 3 replicates":0.928}
{"gene knocked down":"Sod3 (Superoxide dismutase 3)","amplicon":"DRSC26222","mean z-score, 3 replicates":0.0959}
{"gene knocked down":"Pex16 (Peroxin 16)","amplicon":"DRSC11750","mean z-score, 3 replicates":0.0623}
{"gene knocked down":"Vha36-1 (Vacuolar H[+] ATPase 36kD subunit 1)","amplicon":"DRSC07098","mean z-score, 3 replicates":-0.813}
{"gene knocked down":"Vha36-1 (Vacuolar H[+] ATPase 36kD subunit 1)","amplicon":"DRSC25624","mean z-score, 3 replicates":1.49}
{"gene knocked down":"ry (rosy)","amplicon":"DRSC17048","mean z-score, 3 replicates":-0.408}
{"gene knocked down":"ry (rosy)","amplicon":"DRSC27399","mean z-score, 3 replicates":0.0231}
{"gene knocked down":"ry (rosy)","amplicon":"DRSC41026","mean z-score, 3 replicates":0.094}
{"gene knocked down":"Npc2h (Niemann-Pick type C-2h)","amplicon":"DRSC14297","mean z-score, 3 replicates":"-2.23 (active)"}
{"gene knocked down":"Abcd1 (ATP binding cassette subfamily D member 1)","amplicon":"DRSC17157","mean z-score, 3 replicates":0.71}
{"gene knocked down":"Abcd1 (ATP binding cassette subfamily D member 1)","amplicon":"DRSC39677","mean z-score, 3 replicates":0.113}
{"gene knocked down":"CG15117","amplicon":"DRSC06539","mean z-score, 3 replicates":-0.128}
{"gene knocked down":"CG15117","amplicon":"DRSC25471","mean z-score, 3 replicates":-0.264}
{"gene knocked down":"CG15117","amplicon":"DRSC34105","mean z-score, 3 replicates":-1.32}
{"gene knocked down":"ACOX1 (acyl-CoA oxidase 1)","amplicon":"DRSC05941","mean z-score, 3 replicates":-0.226}
{"gene knocked down":"ACOX1 (acyl-CoA oxidase 1)","amplicon":"DRSC24604","mean z-score, 3 replicates":0.579}
{"gene knocked down":"Dci (Dodecenoyl-CoA delta-isomerase)","amplicon":"DRSC08360","mean z-score, 3 replicates":1.14}
{"gene knocked down":"Dci (Dodecenoyl-CoA delta-isomerase)","amplicon":"DRSC28929","mean z-score, 3 replicates":-0.12}
{"gene knocked down":"Rgk1 (Rad, Gem/Kir family member 1)","amplicon":"DRSC05785","mean z-score, 3 replicates":-0.449}
{"gene knocked down":"Rgk1 (Rad, Gem/Kir family member 1)","amplicon":"DRSC23535","mean z-score, 3 replicates":-0.371}
{"gene knocked down":"Rgk1 (Rad, Gem/Kir family member 1)","amplicon":"DRSC37293","mean z-score, 3 replicates":0.0114}
{"gene knocked down":"Vps13 (Vacuolar protein sorting 13)","amplicon":"DRSC06817","mean z-score, 3 replicates":0.00435}
{"gene knocked down":"Vps13 (Vacuolar protein sorting 13)","amplicon":"DRSC29275","mean z-score, 3 replicates":-0.325}
{"gene knocked down":"Vps13 (Vacuolar protein sorting 13)","amplicon":"DRSC35042","mean z-score, 3 replicates":-0.908}
{"gene knocked down":"Vha55 (Vacuolar H[+]-ATPase 55kD subunit)","amplicon":"DRSC26184","mean z-score, 3 replicates":1.26}
{"gene knocked down":"Vha55 (Vacuolar H[+]-ATPase 55kD subunit)","amplicon":"DRSC31689","mean z-score, 3 replicates":-0.376}
{"gene knocked down":"Vha55 (Vacuolar H[+]-ATPase 55kD subunit)","amplicon":"DRSC31690","mean z-score, 3 replicates":"2.11 (active)"}

Laid out differently: 7 of the entries above
gene knocked down | amplicon | mean z-score, 3 replicates
Vha36-1 (Vacuolar H[+] ATPase 36kD subunit 1) | DRSC07098 | -0.813
Vha36-1 (Vacuolar H[+] ATPase 36kD subunit 1) | DRSC25624 | 1.49
ry (rosy) | DRSC17048 | -0.408
ry (rosy) | DRSC27399 | 0.0231
ry (rosy) | DRSC41026 | 0.094
Npc2h (Niemann-Pick type C-2h) | DRSC14297 | -2.23 (active)
Abcd1 (ATP binding cassette subfamily D member 1) | DRSC17157 | 0.71
